The list does not hold the whole screen: it gathers tests that were run many times, whatever their T/C, doses with no T/C, and many T/C values between a quarter and a half above the control. Other doses and runs of a compound stand elsewhere. T/C is the treated group as % of the vehicle group. Some doses have a count of surviving animals in place of a T/C: the source files T/C as zero there, which appears to mark a toxic dose or a test without result, not a measured value. Some survivor counts are full or nearly so, which does not show that the dose was tolerated: the source hardly ever lists a survival T/C far under the control, and the zero likely stands for such cases as well. Survivors were counted at the toxicity check, usually on the fifth day, unless a day is given; later deaths do not show. Schedule codes are those of the source, read here as Q, the interval in days (D) or hours (H), X, the number of doses. Some schedules carry Z or #; the key to these is not given. For survival time, the PubChem record calls one and a half times the control and up active, and a quarter to a half above the control has no call in these data; cut-offs in other NCI protocols can differ. Some entries hold several experiments; the values are given in rising order. Some T/C values carry the count of animals alive at the toxicity check (mostly the fifth day); where none is given, no animal had died by that day.
Test system: L1210 leukemia ip in BDF1 mice, survival T/C
Test: NCI In Vivo Anticancer Drug Screen. Data for tumor model L1210 Leukemia (intraperitoneal) in B6D2F1 (BDF1) mice
Settings: T/C endpoint: mean survival time, higher T/C = longer survival
[1] = dose: 100.0 mg/kg/injection, schedule: Q01DX001 (ip), vehicle: saline
[2] = dose: 200.0 mg/kg/injection, schedule: Q01DX001 (ip), vehicle: saline
[3] = dose: 400.0 mg/kg/injection, schedule: Q01DX001 (ip), vehicle: saline
[4] = dose: 400.0 mg/kg/injection, schedule: Q04DX003 (ip), vehicle: saline
[5] = dose: 300.0 mg/kg/injection, schedule: Q01DX001 (ip), vehicle: carboxymethylcellulose (CMC)
[6] = dose: 400.0 mg/kg/injection, schedule: Q01DX009 (ip), vehicle: Klucel (hydroxypropylcellulose) (HPC)
[7] = dose: 400.0 mg/kg/injection, schedule: Q04DX003 (ip), vehicle: Klucel (hydroxypropylcellulose) (HPC)
[8] = dose: 100.0 mg/kg/injection, schedule: Q01DX009 (ip), vehicle: saline
[9] = dose: 200.0 mg/kg/injection, schedule: Q04DX003 (ip), vehicle: saline
[10] = dose: 400.0 mg/kg/injection, schedule: Q01DX009 (ip), vehicle: saline with Tween-80
[11] = dose: 400.0 mg/kg/injection, schedule: Q04DX003 (ip), vehicle: saline with Tween-80

O=S(=O)(O)C(I)I
survivor count (dose: 50.0 mg/kg/injection, schedule: Q01DX001 (ip), vehicle: saline): 0 of 3 | survivor count [1]: 0 of 3 | survivor count [2]: 0 of 3 | survivor count [3]: 0 of 3

c1ccc([P+](c2ccccc2)(c2ccccc2)C2CC2)cc1
survivor count (dose: 80.0 mg/kg/injection, schedule: Q01DX001 (ip), vehicle: saline): 0 of 6 | survivor count [1]: 0 of 4 | survivor count [2]: 0 of 4 | survivor count [3]: 0 of 4

OC1(CCC2OCCO2)c2ccccc2-c2ccccc21
survivor count (dose: 400.0 mg/kg/injection, schedule: Q04DX002 (ip), vehicle: saline with Tween-80): 3 of 3

Nc1cccnc1NCC(O)c1ccccc1 (centres undefined)
survivor count [3]: 1 of 4

CS(=O)(=O)Nc1cc(C(O)C2CCCCN2)ccc1O (centres undefined)
survivor count [4]: 5 of 6

CN(N)C(=O)Nc1ccccc1[N+](=O)[O-]
survivor count [5]: 2 of 6

OC(CCN1CCCCC1)(c1ccccc1)C1CC2C=CC1C2 (centres undefined)
survivor count (dose: 200.0 mg/kg/injection, schedule: Q01DX009 (ip), vehicle: Klucel (hydroxypropylcellulose) (HPC)): 0 of 6 | survivor count (dose: 200.0 mg/kg/injection, schedule: Q04DX003 (ip), vehicle: Klucel (hydroxypropylcellulose) (HPC)): 3 of 4 | survivor count [6]: 0 of 6 | survivor count [7]: 0 of 4

NC(N)=NN=C1c2ccccc2-c2ccccc21
survivor count (dose: 8.0 mg/kg/injection, schedule: Q01DX Z (oral), vehicle: methylcellulose (MC)): 4 of 6 | survivor count (dose: 15.0 mg/kg/injection, schedule: Q01DX Z (ip), vehicle: methylcellulose (MC)): 3 of 6 | survivor count (dose: 30.0 mg/kg/injection, schedule: Q01DX Z (ip), vehicle: methylcellulose (MC)): 1 of 6 | survivor count (dose: 32.0 mg/kg/injection, schedule: Q01DX Z (oral), vehicle: methylcellulose (MC)): 4 of 6 | survivor count (dose: 60.0 mg/kg/injection, schedule: Q01DX Z (ip), vehicle: methylcellulose (MC)): 0 of 6 | survivor count (dose: 120.0 mg/kg/injection, schedule: Q01DX Z (ip), vehicle: methylcellulose (MC)): 0 of 6

COc1ccc(C)cc1NN
survivor count [8]: 4 of 6 | survivor count [9]: 2 of 6 | survivor count [4]: 0 of 6

S=c1[nH]c2ccccc2[nH]c1=S
survivor count (dose: 100.0 mg/kg/injection, schedule: Q04DX002 (ip), vehicle: Klucel (hydroxypropylcellulose) (HPC)): 0 of 3 | survivor count (dose: 200.0 mg/kg/injection, schedule: Q04DX002 (ip), vehicle: Klucel (hydroxypropylcellulose) (HPC)): 0 of 3 | survivor count (dose: 400.0 mg/kg/injection, schedule: Q04DX002 (ip), vehicle: Klucel (hydroxypropylcellulose) (HPC)): 0 of 3

Cc1ccccc1/C=N/NC(=O)c1cccc2ccccc12
survivor count [3]: 4 of 4

CCOC(=O)c1ccc2c(ccc[n+]2C)c1
survivor count (dose: 300.0 mg/kg/injection, schedule: Q04DX003 (ip), vehicle: saline): 0 of 6

CCOC1CCN(CCCn2c3ccccc3c3ccc(C(C)=O)cc32)CC1
survivor count [3]: 0 of 6

Cc1cccc(C)c1NC(N)=S
survivor count [7]: 6 of 6

CC(C)(C)C1CCC(C(=O)O)CC1 (centres undefined)
survivor count [10]: 6 of 6 | survivor count (dose: 400.0 mg/kg/injection, schedule: Q04DX003 (ip), vehicle: gum acacia): 1 of 6 | survivor count [11]: 6 of 6

CC1(C)N=C(N)N=C(N)N1c1cccc(OCc2cccc(N)c2)c1
survivor count [1]: 1 of 4 | survivor count [2]: 0 of 4 | survivor count [3]: 0 of 4

CC(C)OC(=O)C1(N)CCCC1
T/C (dose: 45.0 mg/kg/injection, schedule: Q01DX Z (ip), vehicle: saline): 133 % of control | T/C (dose: 60.0 mg/kg/injection, schedule: Q01DX Z (ip), vehicle: other): 132 % of control | T/C (dose: 66.0 mg/kg/injection, schedule: Q01DX Z (ip), vehicle: saline): 126 and 138 % of control | T/C (dose: 90.0 mg/kg/injection, schedule: Q01DX Z (ip), vehicle: other): 143 % of control | T/C (dose: 100.0 mg/kg/injection, schedule: Q01DX Z (ip), vehicle: carboxymethylcellulose (CMC)): 126 % of control | T/C (dose: 100.0 mg/kg/injection, schedule: Q01DX Z (ip), vehicle: saline): 136, 138, 147 % of control | T/C (dose: 135.0 mg/kg/injection, schedule: Q01DX Z (ip), vehicle: other): 143 % of control | T/C (dose: 150.0 mg/kg/injection, schedule: Q01DX Z (ip), vehicle: saline): 126 and 136 % of control | T/C (dose: 225.0 mg/kg/injection, schedule: Q01DX Z (ip), vehicle: saline): 134 % of control | T/C (dose: 336.0 mg/kg/injection, schedule: Q01DX Z (ip), vehicle: saline): 127 % of control [5 of 6 alive]

CCCCCNC(C)C(=O)c1ccccc1 (centres undefined)
survivor count [8]: 0 of 6 | survivor count [9]: 0 of 6 | survivor count [4]: 0 of 6

CC(=O)Nc1cc([N+](=O)[O-])cc(C)c1O
survivor count [10]: 5 of 6

O=C1CC(C(=O)O)C(C(=O)O)O1 (centres undefined)
survivor count (dose: 300.0 mg/kg/injection, schedule: Q01DX001 (ip), vehicle: saline): 3 of 6

C=C1CC(Cc2ccccc2)OC1=O (centres undefined)
survivor count (dose: 200.0 mg/kg/injection, schedule: Q01DX001 (ip), vehicle: saline with Tween-80): 0 of 3 | survivor count (dose: 400.0 mg/kg/injection, schedule: Q01DX001 (ip), vehicle: saline with Tween-80): 0 of 3

CCCCCCCCCC/C=C/c1c(C)[nH]c2ccccc2c1=O
survivor count (dose: 200.0 mg/kg/injection, schedule: Q01DX009 (ip), vehicle: alcohol): 0 of 6 | survivor count (dose: 400.0 mg/kg/injection, schedule: Q01DX009 (ip), vehicle: alcohol): 0 of 6

Clc1ccc(C(c2ccc(Cl)cc2)c2ccccn2)cc1
survivor count [6]: 2 of 6

c1ccc(-n2nc3c(c2-c2ccc(OCCN4CCCC4)cc2)CCCc2ccccc2-3)cc1
survivor count (dose: 200.0 mg/kg/injection, schedule: Q04DX003 (ip), vehicle: saline with Tween-80): 4 of 6 | survivor count [11]: 0 of 6

Cc1cc(OC(C)C(=O)O)c(Cl)cc1Cl (centres undefined)
survivor count (dose: 200.0 mg/kg/injection, schedule: Q01DX001 (ip), vehicle: carboxymethylcellulose (CMC)): 3 of 6 | survivor count (dose: 400.0 mg/kg/injection, schedule: Q01DX001 (ip), vehicle: carboxymethylcellulose (CMC)): 3 of 6

CS(=O)(=O)SCc1ccc([N+](=O)[O-])cc1
survivor count (dose: 75.0 mg/kg/injection, schedule: Q01DX001 (ip), vehicle: carboxymethylcellulose (CMC)): 4 of 6 | survivor count (dose: 150.0 mg/kg/injection, schedule: Q01DX001 (ip), vehicle: carboxymethylcellulose (CMC)): 0 of 6 | survivor count [5]: 1 of 6

CSC(=S)NN
survivor count (dose: 16.0 mg/kg/injection, schedule: Q04DX002 (ip), vehicle: saline): 1 of 3 | survivor count (dose: 32.0 mg/kg/injection, schedule: Q04DX002 (ip), vehicle: saline): 0 of 3

CC1(C)SC(C(NC(=O)Cc2ccccc2)C(=O)O)NC1C(=O)O (centres undefined)
survivor count (dose: 200.0 mg/kg/injection, schedule: Q01DX009 (ip), vehicle: saline with Tween-80): 6 of 6

COc1cc(C(=O)Nc2ccc(C3=NCCN3)cc2)ccc1C(=O)Nc1ccc(C2=NCCN2)cc1
T/C (dose: 1.88 mg/kg/injection, schedule: Q01DX Z (ip), vehicle: saline): 128 % of control | T/C (dose: 3.75 mg/kg/injection, schedule: Q01DX Z (ip), vehicle: saline): 134 % of control | T/C (dose: 7.5 mg/kg/injection, schedule: Q01DX Z (ip), vehicle: saline): 141 % of control | T/C (dose: 120.0 mg/kg/injection, schedule: Q01DX Z (ip), vehicle: saline): 127 % of control [5 of 6 alive] | survivor count (dose: 240.0 mg/kg/injection, schedule: Q01DX Z (ip), vehicle: saline): 0 of 6 | survivor count (dose: 480.0 mg/kg/injection, schedule: Q01DX Z (ip), vehicle: saline): 0 of 6

— PubChem BioAssay AID248 (DTP/NCI, 2004)
